Source: patent publication US11567085B2, “Photo-cleavable surfactants” (Wisconsin Alumni Research Foundation, priority 2018, dated 2023)
Some compounds share one wording; it may come from a single statement.

Experiments:
cardiac tissue lysate = test: LC-MS compatibility comparison using cardiac tissue lysate with 0.1% surfactant; design: species or system swine; settings: buffer exchanged (FIG. 18)
Ubi [1] = test: MS-compatibility: direct infusion ESI-MS of Ubi with 0.1% surfactant (7 T LTQ/FT-ICR); design: species or system bovine; settings: 80% isopropanol, 14.9% water, 5% formic acid, no desalting, Azo after UV, MaSDeS after acid degradation (FIG. 2d)
Ubi [2] = test: MS compatibility comparison to common surfactants: Ubi with 0.1% surfactant (12 T FTICR); design: species or system bovine; settings: cleavable surfactants degraded first (FIG. 17)
cardiac tissue proteins = test: Azo-aided top-down proteomics of cardiac tissue extract by RPLC-MS and RPLC-MS/MS; design: species or system swine
[3] = tested on: myoglobin, bovine serum albumin; test: Azo-aided trypsin digestion of standard proteins

CCCCCCCCCCCCO[C@@H]1O[C@H](CO)[C@@H](O[C@H]2O[C@H](CO)[C@@H](O)[C@H](O)[C@H]2O)[C@H](O)[C@H]1O [DDM, n-dodecyl β-D-maltoside]
top-down LC-MS compatibility / signal suppression (cardiac tissue lysate): great top-down MS-compatibility | MS signal suppression of Ubi (Ubi [1]): minimal signal suppression | MS signal suppression of intact Ubi (Ubi [2]): minimal MS protein signal suppression

C[C@@H]1CC[C@@]2(OC1)O[C@H]1[C@@H](O)[C@H]3[C@@H]4CC[C@H]5C[C@@H](O[C@@H]6O[C@H](CO)[C@H](O[C@@H]7O[C@H](CO)[C@@H](O)[C@H](O[C@@H]8OC[C@@H](O)[C@H](O)[C@H]8O)[C@H]7O[C@@H]7O[C@H](CO)[C@H](O)[C@H](O[C@@H]8O[C@H](CO)[C@@H](O)[C@H](O)[C@H]8O)[C@H]7O)[C@H](O)[C@H]6O)[C@H](O)C[C@]5(C)[C@H]4CC[C@]3(C)[C@H]1[C@@H]2C [DGT, digitonin]
top-down LC-MS compatibility / signal suppression (cardiac tissue lysate): to a lesser extent | MS signal suppression of intact Ubi (Ubi [2]): minimal MS protein signal suppression

CCCCCCCCCCCC1(C)OCC(COCCCS(=O)(=O)[O-])O1.[Na+] (stereo not shown) [RG]
top-down LC-MS compatibility / signal suppression (cardiac tissue lysate): significant signal suppression | MS signal suppression of intact Ubi (Ubi [2]): significantly suppressed

4-hexylphenylazosulfonate
top-down LC-MS compatibility / signal suppression (cardiac tissue lysate): great top-down MS-compatibility | total proteoforms detected based on accurate mass (cardiac tissue proteins; 0.5% Azo extraction, combination of three LC-MS runs): 2836 | proteoforms identified by online RPLC-MS/MS (cardiac tissue proteins; 0.5% Azo extraction, one-dimensional RPLC-MS/MS, representing 171 proteins): 388 | unique protein masses not present without surfactant (cardiac tissue proteins; swine heart tissue lysate after HEPES depletion, RPLC-MS/MS): 663 | MS signal suppression of Ubi (Ubi [1]): minimal signal suppression | sequence coverage of myoglobin by peptide mass fingerprinting ([3]; 0.1% Azo, 1 h trypsin digest, infused without clean-up): 89% | time for protein digest ([3]; Azo (0.1%), trypsin, sample without Azo remained intact): < 0.5 h | MS signal suppression of intact Ubi (Ubi [2]): minimal MS protein signal suppression

CCCCCCCCCCC(OC(=O)NCCCS(=O)(=O)[O-])c1ccco1.[Na+] (stereo not shown) [PM]
top-down LC-MS compatibility / signal suppression (cardiac tissue lysate): significant signal suppression | MS signal suppression of intact Ubi (Ubi [2]): significantly suppressed

CCCCCCCCO[C@@H]1O[C@H](CO)[C@@H](O)[C@H](O)[C@H]1O [OG, Octyl β-D-glucopyranoside]
top-down LC-MS compatibility / signal suppression (cardiac tissue lysate): great top-down MS-compatibility | MS signal suppression of intact Ubi (Ubi [2]): minimal MS protein signal suppression

CCCCCCCCCCCCOS(=O)(=O)[O-].[Na+] [SDS, sodium dodecyl sulfate]
top-down LC-MS compatibility / signal suppression (cardiac tissue lysate): significant signal suppression | MS signal suppression of Ubi (Ubi [1]): completely suppressed | MS signal suppression of intact Ubi (Ubi [2]): dramatically suppressed
